This is an account of results in publication PMC8934638, “H3K36 methylation and DNA-binding both promote Ioc4 recruitment and Isw1b remodeler function”.

The target in this data set is T1, Ioc4 PWWP domain (Saccharomyces cerevisiae) (UniProt Q04213).
T1 sequence (looked up): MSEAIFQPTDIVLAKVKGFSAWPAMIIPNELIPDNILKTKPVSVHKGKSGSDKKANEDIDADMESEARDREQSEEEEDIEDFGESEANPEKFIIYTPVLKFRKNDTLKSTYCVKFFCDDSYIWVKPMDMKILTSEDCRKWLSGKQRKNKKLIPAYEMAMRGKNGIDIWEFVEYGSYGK
In words: EMSA. As to conditions: 15 fmol NCP (30 fmol unmodified NCP) per reaction, 5% native PAGE (37.5:1) in 0.4x TBE, 2% glycerol, binding buffer, pH and temperature not given (as in cited work), recombinant protein, residues 1-178, protein details: N-terminal 6xHis. On the technique in general: In EMSA bound probe runs differently from free probe, usually more slowly.

For at least one entry, the source does not settle the construct or the ends of the probe. Tags and fusion partners may be left off the protein sequences shown.

As a reminder, the Kd is a measure of binding affinity in units of concentration. For the sequence “GGCAAGGTCGCTGTTCAATACATGCACAGG [ssDNA 30 nt]”, under “label: Cy5, single-stranded DNA”, the Kd stood at 1650 nM. Regarding “GGCAAGGUCGCUGUUCAAUACAUGCACAGG [ssRNA 30 nt]”, the Kd (label: Cy5) was determined as 640 nM.
